Drawing on publication PMC11360757, this text covers binding for two substances.

The chains behind the UniProt entries cited, without tags or fusion partners.
UniProt O43707: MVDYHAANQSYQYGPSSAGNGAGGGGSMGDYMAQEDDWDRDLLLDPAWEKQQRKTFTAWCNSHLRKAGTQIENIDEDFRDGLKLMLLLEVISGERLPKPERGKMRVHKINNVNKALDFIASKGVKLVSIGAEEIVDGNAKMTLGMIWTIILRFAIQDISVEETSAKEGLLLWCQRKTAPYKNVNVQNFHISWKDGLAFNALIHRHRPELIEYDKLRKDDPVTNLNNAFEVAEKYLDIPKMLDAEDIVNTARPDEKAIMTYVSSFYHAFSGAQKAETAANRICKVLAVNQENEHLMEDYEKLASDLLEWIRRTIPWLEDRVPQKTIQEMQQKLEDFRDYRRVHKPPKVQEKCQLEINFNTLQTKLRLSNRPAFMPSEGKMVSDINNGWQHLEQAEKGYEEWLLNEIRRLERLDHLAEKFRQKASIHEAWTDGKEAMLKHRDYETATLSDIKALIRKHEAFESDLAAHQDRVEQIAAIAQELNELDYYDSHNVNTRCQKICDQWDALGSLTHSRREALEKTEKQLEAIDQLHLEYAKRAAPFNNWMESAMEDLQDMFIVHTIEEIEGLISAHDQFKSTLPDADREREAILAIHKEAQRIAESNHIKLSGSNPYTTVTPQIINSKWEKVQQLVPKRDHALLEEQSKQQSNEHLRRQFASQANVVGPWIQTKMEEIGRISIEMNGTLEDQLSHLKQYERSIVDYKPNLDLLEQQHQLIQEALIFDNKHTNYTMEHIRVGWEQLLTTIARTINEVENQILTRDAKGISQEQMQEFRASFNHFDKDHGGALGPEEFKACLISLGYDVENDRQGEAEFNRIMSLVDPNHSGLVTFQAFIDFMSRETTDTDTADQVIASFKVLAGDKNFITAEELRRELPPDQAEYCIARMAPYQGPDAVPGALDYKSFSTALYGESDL

Changes are numbered by the printed parent chain. No constants are given. Whether binding was seen depends on the method and setting. In cells and extracts the contact can be indirect. Some results given as binding are weak or reduced against the parent protein; the word gives no strength. For part of these data: Where a sequence is shown, tags or fusion partners need not be part of it.

Assay [1] has as its target T1, chaperonin-containing TCP1 subunit 3 (CCT3) (human (endogenous in 97 L and LM3)) (UniProt P49368).
T1 sequence: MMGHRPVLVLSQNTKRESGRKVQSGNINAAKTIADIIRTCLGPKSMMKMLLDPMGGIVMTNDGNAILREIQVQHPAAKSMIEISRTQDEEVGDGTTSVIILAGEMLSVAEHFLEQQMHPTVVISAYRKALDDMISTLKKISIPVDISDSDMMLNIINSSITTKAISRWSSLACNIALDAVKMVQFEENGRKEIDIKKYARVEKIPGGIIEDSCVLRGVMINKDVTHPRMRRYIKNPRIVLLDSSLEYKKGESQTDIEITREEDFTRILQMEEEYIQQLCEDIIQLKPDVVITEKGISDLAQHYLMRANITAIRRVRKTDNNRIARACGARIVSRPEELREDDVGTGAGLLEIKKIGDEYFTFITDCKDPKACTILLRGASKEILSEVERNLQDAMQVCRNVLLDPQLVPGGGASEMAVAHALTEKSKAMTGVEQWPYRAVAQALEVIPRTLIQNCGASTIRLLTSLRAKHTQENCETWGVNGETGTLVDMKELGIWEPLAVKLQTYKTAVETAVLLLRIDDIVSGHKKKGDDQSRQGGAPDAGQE
The assay is described as follows: co-IP; endogenous proteins in 97 L and LM3 lysates (0.5% NP40, 4 °C), anti-CCT3 or anti-ACTN4 antibody or isotype IgG overnight, protein A/G agarose, Western blot.

Assay [2] addresses T2, K21R mutant CCT3 (CCT3^K21R) (UniProt P49368).
T2 sequence: T1 sequence with K21R
The assay is described as follows: co-IP; exogenous, tagged proteins co-expressed in 293T cells, lysis in 0.5% NP40, anti-Flag or anti-Myc antibody, protein A/G agarose, Western blot.

In a further assay the target is T3, Flag-CCT3 (UniProt P49368).
T3 sequence: T1 sequence
The assay is described as above.

ACTN4 (from UniProt O43707 1-911): in assay [1], the binding result is on record as “binds”. With Myc-ACTN4 (from UniProt O43707 1-911), the binding entry (in assay [2]; in the assay with Flag-CCT3) was “binds” each time.
